The target in one assay is non-tagged Hfq (E. coli) (UniProt P0A6X3). In words: MST; non-tagged Hfq with PAP; data not shown; both purified.
Assay [1] concerns the target HfqH6 (His6-tagged Hfq expressed from pHfqH6) (E. coli) (UniProt P0A6X3). Kind of assay: cross-linking; in vivo, 0.25 mM DSP in PBS, 1 h at 37 °C, late exponential phase; HfqH6 complexes enriched on Ni-Agarose; with or without 50 mM DTT; SDS-PAGE, 24 gel slices analysed by mass spectrometry; no RNase A treatment.

Sequences of proteins named here, by UniProt entry; tags and fusion partners are left off.
UniProt P0A6X3: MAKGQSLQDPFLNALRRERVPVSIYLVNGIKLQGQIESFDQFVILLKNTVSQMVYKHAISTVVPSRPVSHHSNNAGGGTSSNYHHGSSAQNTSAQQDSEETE

These are yes or no findings as the source states them, for the method shown. For some assays here: Binding seen in cells or lysates may run through a third protein. Some results given as binding are weak or reduced against the parent protein; the word gives no strength.

B1: Poly(A)polymerase, PAP (purified) (protein, UniProt P0ABF1 11-465)
chain: KVLSREESEAEQAVARPQVTVIPREQHAISRKDISENALKVMYRLNKAGYEAWLVGGGVRDLLLGKKPKDFDVTTNATPEQVRKLFRNCRLVGRRFRLAHVMFGPEIIEVATFRGHHEGNVSDRTTSQRGQNGMLLRDNIFGSIEEDAQRRDFTINSLYYSVADFTVRDYVGGMKDLKDGVIRLIGNPETRYREDPVRMLRAVRFAAKLGMRISPETAEPIPRLATLLNDIPPARLFEESLKLLQAGYGYETYKLLCEYHLFQPLFPTITRYFTENGDSPMERIIEQVLKNTDTRIHNDMRVNPAFLFAAMFWYPLLETAQKIAQESGLTYHDAFALAMNDVLDEACRSLAIPKRLTTLTRDIWQLQLRMSRRQGKRAWKLLEHPKFRAAYDLLALRAEVERNAELQRLVKWWGEFQVSAPPDQKGMLNELDEEPSPRRRTRRPRKRAPRREGTA
Take B1: the binding entry in the assay with non-tagged Hfq (E. coli) is “binds”.

B2: GlmS (protein, UniProt P17169 1-609)
chain: MCGIVGAIAQRDVAEILLEGLRRLEYRGYDSAGLAVVDAEGHMTRLRRLGKVQMLAQAAEEHPLHGGTGIAHTRWATHGEPSEVNAHPHVSEHIVVVHNGIIENHEPLREELKARGYTFVSETDTEVIAHLVNWELKQGGTLREAVLRAIPQLRGAYGTVIMDSRHPDTLLAARSGSPLVIGLGMGENFIASDQLALLPVTRRFIFLEEGDIAEITRRSVNIFDKTGAEVKRQDIESNLQYDAGDKGIYRHYMQKEIYEQPNAIKNTLTGRISHGQVDLSELGPNADELLSKVEHIQILACGTSYNSGMVSRYWFESLAGIPCDVEIASEFRYRKSAVRRNSLMITLSQSGETADTLAGLRLSKELGYLGSLAICNVPGSSLVRESDLALMTNAGTEIGVASTKAFTTQLTVLLMLVAKLSRLKGLDASIEHDIVHGLQALPSRIEQMLSQDKRIEALAEDFSDKHHALFLGRGDQYPIALEGALKLKEISYIHAEAYAAGELKHGPLALIDADMPVIVVAPNNELLEKLKSNIEEVRARGGQLYVFADQDAGFVSSDNMHIIEMPHVEEVIAPIFYTVPLQLLAYHVALIKGTDVDQPRNLAKSVTVE
With B2, the binding entry in assay [1] was “no binding”.

The record behind these values is paper PMC6773851.
